# Laboratory results reported in PubChem BioAssay AID2685 (National Center for Advancing Translational Sciences (NCATS), 2010).
# The list shows a part of the results. These are further read-outs of the screen, such as a control signal, another cell line or another target. No call is given for them. Compounds called inactive in the main read-out are mostly missing here. Words in brackets tell the shape of the fitted curve; partial curves, single points and poor fits give uncertain potencies.
# Assay: qHTS Assay for Lipid Storage Modulators in Drosophila S3 Cells;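 as to cell number change: cells counted by Cell Tracker Red CMTPX staining in the red channel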
# Conditions: BODIPY lipid droplet fluorescence, 18-24 h; for cell number change: measured here: cell count max response, cells fed with added oleic acid
# Summary of the method: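 Drosophila S3 cells loaded with oleic acid (400 uM, as added) and compounds at several concentrations; lipid droplets imaged by 488-nm laser-scanning cytometry, 500–530 nm intensity and object ratio to cell channel. Percent activity normalized to 20 uM Triacsin C.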
# [1] = measured here: lipid fluorescence (Fed channel) AC50, cells fed with added oleic acid
# [2] = measured here: cell number channel AC50, cells fed with added oleic acid
SMILES,cell number change [%],AC50 [1],AC50 [2]
COc1ccc(N(C)C(=O)C2CCCN2S(=O)(=O)c2cccc3nsnc23)cc1 (centres undefined),-27.9,"0.326 µM [rising, full curve, poor fit]",–
Cc1nnc(NC(=O)Nc2ccc(Cl)c(Cl)c2)s1,28.8,"6.51 µM [rising, partial curve]",–
COc1ccc(C(=O)NNC(=O)CSc2nnnn2-c2cc(OC)cc(OC)c2)cc1,2.78,"6.51 µM [rising, single point]",–
O=c1[nH]c2cc3c(cc2cc1CN(Cc1ccccc1)Cc1nnnn1Cc1ccco1)OCCO3,-27.9,"0.00517 µM [falling, full curve, poor fit]",–
Cc1[nH]c2ccccc2c1C(=O)CSc1nc2ccccc2[nH]1,-6.54,"23.1 µM [rising, single point]",–
CC(NC(=O)c1cccc(Cl)c1)C1CC2CCC1C2 (centres undefined),-7.21,"29.1 µM [falling, single point]",–
COc1ccc(CN2CCC(=O)NC2=O)cc1,-8.22,"0.58 µM [falling, single point]",–
Cc1cccc(NC(=O)CN2CCCCCC2)c1,23.5,"0.13 µM [rising, full curve, poor fit]",–
O=C(c1ccc(CS(=O)(=O)c2ccc(Br)cc2)o1)N1CCOCC1,2.37,–,–
O=C(NN1CCOCC1)c1ccc(F)cc1,20.3,"29.1 µM [rising, single point]",–
CCC(C)(C)n1nnnc1C(c1ccncc1)N1CCC(Cc2ccccc2)CC1 (centres undefined),44.4,"0.82 µM [rising, single point]","1.84 µM [rising, partial curve, poor fit]"
CCOc1ccc(C2c3[nH]c4ccccc4c3CCN2Cc2cccn2-c2ncccn2)cc1 (centres undefined),26.8,"13 µM [rising, partial curve, poor fit]",–
Cc1ccc(NC(=O)c2ccc(F)cc2F)cc1NS(C)(=O)=O,56.2,–,–
Cc1ccc(C)c(Nc2ncnc(N)c2[N+](=O)[O-])c1,-19.4,–,–
O=S(=O)(NCCCN1CCOCC1)c1ccc(Cl)cc1,11.7,"0.58 µM [rising, single point]",–
Cc1cccc(C)c1OC(=O)CSc1nnc(-c2ccccc2)o1,-43.1,"29.1 µM [falling, single point]","29.1 µM [falling, single point]"
COC(=O)c1[nH]c2ccccc2c1NC(=O)CN1CCN(c2cccc(Cl)c2)CC1,–,"10.3 µM [falling, partial curve]",–
O=C(CSc1nnnn1Cc1ccccc1)Nc1cccc(F)c1,-2.56,"0.0651 µM [rising, partial curve, poor fit]",–

# Quoted from the listing, two compounds:
SMILES,cell number change [%],AC50 [1],AC50 [2]
CCOc1ccc(C2c3[nH]c4ccccc4c3CCN2Cc2cccn2-c2ncccn2)cc1 (centres undefined),26.8,"13 µM [rising, partial curve, poor fit]",–
Cc1ccc(NC(=O)c2ccc(F)cc2F)cc1NS(C)(=O)=O,56.2,–,–
